Source: the supplement of paper PMC6411743
± gives the standard deviation of the averaged measurements. Only a part is listed here, and it is no random draw.

By UniProt entry, the sequences of proteins in these tests, tags left out. Where a name states a change or a piece, a line headed by the entry shows the natural chain unless it says otherwise.
UniProt Q8NFQ8: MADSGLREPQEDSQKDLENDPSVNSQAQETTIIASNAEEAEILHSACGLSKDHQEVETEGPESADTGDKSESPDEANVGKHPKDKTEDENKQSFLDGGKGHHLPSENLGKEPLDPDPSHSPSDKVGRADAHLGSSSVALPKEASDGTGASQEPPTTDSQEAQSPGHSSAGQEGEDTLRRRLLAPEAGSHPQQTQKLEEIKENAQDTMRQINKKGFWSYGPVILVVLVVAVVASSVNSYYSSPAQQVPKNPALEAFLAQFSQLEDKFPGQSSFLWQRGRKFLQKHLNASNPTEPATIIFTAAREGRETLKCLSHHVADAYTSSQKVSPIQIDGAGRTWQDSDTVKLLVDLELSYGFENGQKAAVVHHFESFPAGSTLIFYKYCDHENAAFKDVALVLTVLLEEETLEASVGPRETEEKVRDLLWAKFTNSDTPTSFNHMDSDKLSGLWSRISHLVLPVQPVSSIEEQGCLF
UniProt Q8TAP8: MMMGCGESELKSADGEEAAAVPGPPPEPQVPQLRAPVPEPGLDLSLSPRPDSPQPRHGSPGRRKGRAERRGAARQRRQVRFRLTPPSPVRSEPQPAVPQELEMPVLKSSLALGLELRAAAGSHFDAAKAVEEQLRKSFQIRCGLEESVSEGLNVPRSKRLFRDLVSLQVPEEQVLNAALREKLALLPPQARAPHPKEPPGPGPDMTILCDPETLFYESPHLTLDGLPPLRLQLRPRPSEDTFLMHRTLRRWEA
UniProt Q8IYS1: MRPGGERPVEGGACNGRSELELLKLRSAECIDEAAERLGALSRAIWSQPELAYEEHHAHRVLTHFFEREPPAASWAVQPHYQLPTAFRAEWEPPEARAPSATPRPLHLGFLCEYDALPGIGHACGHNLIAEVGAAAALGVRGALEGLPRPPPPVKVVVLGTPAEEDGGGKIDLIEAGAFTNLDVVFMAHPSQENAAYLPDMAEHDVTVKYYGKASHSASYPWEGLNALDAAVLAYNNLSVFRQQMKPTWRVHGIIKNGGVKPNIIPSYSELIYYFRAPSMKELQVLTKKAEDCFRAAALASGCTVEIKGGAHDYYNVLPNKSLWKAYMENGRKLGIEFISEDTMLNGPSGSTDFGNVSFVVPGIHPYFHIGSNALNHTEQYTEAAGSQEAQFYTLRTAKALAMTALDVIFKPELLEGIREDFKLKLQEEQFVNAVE
UniProt Q8N6S5: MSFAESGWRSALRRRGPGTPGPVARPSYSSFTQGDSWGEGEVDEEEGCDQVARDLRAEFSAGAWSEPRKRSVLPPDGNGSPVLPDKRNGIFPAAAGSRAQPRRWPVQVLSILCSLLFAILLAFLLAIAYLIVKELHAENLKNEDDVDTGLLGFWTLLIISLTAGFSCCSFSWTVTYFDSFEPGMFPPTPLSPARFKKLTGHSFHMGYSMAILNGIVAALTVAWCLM
UniProt Q8TB37: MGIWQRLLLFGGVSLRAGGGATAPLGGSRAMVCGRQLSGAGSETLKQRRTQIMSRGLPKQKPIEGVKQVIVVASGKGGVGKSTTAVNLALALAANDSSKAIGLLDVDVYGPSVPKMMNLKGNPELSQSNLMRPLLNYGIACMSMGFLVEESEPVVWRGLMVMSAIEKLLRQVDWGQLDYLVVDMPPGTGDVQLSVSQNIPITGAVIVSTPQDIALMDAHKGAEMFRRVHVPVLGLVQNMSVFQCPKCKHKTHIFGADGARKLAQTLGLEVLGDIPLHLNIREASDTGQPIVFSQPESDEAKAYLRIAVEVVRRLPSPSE
UniProt Q8N1K5: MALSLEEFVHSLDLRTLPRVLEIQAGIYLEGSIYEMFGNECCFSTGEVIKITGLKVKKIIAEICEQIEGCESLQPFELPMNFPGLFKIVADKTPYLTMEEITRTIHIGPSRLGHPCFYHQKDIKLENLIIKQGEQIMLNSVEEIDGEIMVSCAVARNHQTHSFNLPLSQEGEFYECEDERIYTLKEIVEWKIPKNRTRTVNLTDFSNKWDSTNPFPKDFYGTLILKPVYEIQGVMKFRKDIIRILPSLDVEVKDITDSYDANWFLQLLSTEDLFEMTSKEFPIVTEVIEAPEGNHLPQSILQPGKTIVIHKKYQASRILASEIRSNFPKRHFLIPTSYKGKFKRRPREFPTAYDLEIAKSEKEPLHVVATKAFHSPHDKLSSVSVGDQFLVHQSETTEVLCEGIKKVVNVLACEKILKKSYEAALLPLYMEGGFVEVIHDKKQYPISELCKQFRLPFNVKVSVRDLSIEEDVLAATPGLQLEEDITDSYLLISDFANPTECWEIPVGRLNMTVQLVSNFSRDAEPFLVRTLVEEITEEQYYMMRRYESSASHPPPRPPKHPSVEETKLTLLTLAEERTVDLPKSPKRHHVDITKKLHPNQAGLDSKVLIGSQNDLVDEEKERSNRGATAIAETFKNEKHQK
UniProt Q8NB90: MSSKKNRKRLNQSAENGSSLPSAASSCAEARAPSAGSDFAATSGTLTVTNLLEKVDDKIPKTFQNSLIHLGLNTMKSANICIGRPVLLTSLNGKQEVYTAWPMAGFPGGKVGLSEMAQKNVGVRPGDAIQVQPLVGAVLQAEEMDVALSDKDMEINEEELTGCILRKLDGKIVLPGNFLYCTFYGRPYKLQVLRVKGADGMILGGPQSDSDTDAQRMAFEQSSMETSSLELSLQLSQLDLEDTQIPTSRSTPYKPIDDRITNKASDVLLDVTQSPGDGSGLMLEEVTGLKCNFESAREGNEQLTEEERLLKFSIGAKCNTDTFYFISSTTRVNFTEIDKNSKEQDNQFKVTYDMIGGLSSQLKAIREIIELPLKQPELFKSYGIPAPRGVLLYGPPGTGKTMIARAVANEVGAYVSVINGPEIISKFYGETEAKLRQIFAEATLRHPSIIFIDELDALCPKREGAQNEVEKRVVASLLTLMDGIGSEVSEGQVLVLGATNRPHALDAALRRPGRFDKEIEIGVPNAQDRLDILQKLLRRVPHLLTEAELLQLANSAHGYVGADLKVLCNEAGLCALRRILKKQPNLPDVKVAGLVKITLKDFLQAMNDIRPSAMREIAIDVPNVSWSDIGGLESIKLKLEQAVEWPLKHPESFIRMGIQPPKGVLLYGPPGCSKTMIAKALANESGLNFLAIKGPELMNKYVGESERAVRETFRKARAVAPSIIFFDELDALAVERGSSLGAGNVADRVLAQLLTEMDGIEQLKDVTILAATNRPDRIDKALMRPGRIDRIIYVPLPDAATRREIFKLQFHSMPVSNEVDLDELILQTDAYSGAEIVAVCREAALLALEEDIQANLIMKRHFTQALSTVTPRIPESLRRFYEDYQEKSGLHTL
UniProt Q8IY81: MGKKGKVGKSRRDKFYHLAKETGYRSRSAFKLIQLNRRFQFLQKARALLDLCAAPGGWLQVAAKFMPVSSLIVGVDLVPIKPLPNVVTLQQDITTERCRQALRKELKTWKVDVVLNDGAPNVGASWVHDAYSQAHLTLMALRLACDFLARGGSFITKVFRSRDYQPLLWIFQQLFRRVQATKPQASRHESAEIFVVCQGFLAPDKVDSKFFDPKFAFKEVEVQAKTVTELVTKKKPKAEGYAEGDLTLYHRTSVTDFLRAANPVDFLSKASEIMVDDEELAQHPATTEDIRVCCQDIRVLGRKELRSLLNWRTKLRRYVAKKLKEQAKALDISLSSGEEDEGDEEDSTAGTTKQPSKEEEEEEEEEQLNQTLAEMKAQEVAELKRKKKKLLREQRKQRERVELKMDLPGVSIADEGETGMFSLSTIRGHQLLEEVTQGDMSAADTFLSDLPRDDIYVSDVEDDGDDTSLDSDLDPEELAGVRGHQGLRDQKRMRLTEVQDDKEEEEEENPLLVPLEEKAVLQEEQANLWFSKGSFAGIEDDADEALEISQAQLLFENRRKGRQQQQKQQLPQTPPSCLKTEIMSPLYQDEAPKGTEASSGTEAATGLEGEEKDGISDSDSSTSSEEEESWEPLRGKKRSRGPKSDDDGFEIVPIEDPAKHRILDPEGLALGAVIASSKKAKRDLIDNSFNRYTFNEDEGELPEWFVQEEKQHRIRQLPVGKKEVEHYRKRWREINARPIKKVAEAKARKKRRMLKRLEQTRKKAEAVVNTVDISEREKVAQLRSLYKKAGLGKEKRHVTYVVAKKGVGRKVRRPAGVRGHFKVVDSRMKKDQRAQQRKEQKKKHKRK
UniProt Q8NFD5, whole entry: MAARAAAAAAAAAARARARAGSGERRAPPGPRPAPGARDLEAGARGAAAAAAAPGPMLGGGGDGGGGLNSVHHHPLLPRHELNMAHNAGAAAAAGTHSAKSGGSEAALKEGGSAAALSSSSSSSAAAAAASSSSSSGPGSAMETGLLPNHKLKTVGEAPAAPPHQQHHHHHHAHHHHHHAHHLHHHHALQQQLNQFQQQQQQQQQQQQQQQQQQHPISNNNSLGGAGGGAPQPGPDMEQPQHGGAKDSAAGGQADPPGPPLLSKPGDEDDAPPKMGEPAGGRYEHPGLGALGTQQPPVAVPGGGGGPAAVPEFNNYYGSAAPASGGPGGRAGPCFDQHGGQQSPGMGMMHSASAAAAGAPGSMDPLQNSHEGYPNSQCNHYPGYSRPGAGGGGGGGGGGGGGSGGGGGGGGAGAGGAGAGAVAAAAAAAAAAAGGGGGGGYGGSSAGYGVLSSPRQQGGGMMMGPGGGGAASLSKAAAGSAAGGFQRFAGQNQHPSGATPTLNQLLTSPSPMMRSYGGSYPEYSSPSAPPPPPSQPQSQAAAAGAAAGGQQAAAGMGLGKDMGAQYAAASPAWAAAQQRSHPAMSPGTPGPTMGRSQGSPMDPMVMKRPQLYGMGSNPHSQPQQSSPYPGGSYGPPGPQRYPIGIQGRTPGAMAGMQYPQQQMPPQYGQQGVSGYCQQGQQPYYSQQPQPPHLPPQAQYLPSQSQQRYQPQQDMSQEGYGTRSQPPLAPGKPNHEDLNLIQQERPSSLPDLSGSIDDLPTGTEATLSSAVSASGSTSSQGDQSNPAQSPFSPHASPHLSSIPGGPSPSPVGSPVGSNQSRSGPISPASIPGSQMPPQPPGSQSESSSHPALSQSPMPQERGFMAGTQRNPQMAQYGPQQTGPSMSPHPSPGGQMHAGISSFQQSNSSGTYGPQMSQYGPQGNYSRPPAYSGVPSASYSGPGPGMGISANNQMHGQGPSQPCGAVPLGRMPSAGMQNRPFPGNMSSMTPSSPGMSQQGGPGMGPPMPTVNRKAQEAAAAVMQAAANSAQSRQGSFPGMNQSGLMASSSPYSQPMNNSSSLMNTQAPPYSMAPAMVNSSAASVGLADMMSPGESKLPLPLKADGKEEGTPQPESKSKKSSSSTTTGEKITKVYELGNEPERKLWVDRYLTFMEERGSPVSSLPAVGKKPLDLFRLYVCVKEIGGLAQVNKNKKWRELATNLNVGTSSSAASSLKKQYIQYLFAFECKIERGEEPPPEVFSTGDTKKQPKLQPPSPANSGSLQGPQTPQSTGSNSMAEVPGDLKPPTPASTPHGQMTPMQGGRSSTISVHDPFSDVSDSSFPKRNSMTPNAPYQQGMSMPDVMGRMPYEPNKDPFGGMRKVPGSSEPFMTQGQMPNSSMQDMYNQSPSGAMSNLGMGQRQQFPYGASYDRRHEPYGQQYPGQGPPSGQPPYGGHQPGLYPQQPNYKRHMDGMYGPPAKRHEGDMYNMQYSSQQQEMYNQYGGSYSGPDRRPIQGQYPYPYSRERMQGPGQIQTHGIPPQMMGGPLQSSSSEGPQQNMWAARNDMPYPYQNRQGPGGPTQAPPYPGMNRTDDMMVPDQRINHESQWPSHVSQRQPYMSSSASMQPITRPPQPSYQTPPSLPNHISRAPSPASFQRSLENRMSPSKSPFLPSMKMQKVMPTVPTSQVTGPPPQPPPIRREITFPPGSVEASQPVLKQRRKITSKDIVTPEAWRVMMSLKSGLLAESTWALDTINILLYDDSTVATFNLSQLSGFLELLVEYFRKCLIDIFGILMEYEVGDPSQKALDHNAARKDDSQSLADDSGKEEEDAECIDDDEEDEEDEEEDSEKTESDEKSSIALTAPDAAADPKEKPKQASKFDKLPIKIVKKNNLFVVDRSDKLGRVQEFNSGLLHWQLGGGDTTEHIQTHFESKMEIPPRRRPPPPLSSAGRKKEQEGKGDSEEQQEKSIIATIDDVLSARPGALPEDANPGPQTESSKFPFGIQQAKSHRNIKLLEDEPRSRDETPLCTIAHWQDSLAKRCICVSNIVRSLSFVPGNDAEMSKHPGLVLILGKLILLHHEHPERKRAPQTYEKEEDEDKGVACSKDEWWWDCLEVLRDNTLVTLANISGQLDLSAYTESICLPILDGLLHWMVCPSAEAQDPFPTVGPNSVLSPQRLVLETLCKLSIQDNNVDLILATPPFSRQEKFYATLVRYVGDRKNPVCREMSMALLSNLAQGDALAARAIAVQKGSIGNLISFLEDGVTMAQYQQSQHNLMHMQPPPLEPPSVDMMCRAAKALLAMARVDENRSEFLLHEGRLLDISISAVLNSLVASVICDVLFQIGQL
UniProt Q8IXQ3: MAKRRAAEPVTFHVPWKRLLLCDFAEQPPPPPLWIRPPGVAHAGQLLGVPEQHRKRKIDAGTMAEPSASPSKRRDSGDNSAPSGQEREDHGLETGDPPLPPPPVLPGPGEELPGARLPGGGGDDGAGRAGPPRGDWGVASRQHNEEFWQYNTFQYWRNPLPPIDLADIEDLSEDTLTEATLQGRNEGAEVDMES

Compound: Nc1ncnc2c1ncn2[C@@H]1O[C@H](COP(=O)(O)OP(=O)(O)OP(=O)(O)O)[C@@H](O)[C@H]1O [adenosine triphosphate]
Test: NP40-soluble protein abundance relative to vehicle (solubility fold change) (ratio); higher = more soluble protein in presence of ATP
Summary of the method: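 In three independent experiments, Jurkat crude lysate made by Dounce homogenisation was treated for 10 min at room temperature and then 3 min at 37 °C with eight concentrations ranging from 0.1 to 10 mM. It was then solubilised with 0.8% NP40 plus benzonase for 60 min at 4 °C and ultracentrifuged. The supernatant was TMT-labelled for LC-MS/MS, and each value is the fold change against the detergent-processed vehicle for the same replicate, using vsn-normalised intensities.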

Target	NP40-soluble protein abundance (concentration: 1mM)	NP40-soluble protein abundance (concentration: 2mM)	NP40-soluble protein abundance (concentration: 4mM)	NP40-soluble protein abundance (concentration: 6mM)	NP40-soluble protein abundance (concentration: 8mM)	NP40-soluble protein abundance (concentration: 10mM)
UniProt Q8IYS2 and related entries	1.01 ± 0.078	0.997 ± 0.061	0.996 ± 0.064	0.97 ± 0.034	1.02 ± 0.073	1.04 ± 0.067
UniProt Q8N5Y2 and related entries	1.34 ± 0.12	1.38 ± 0.19	1.49 ± 0.15	1.64 ± 0.33	1.52 ± 0.19	1.56 ± 0.2
PDZD8 (UniProt Q8NEN9)	0.986 ± 0.036	0.943 ± 0.029	0.992 ± 0.041	1.02 ± 0.027	0.941 ± 0.038	0.967 ± 0.061
RNF168 (UniProt Q8IYW5)	0.92 ± 0.026	0.932 ± 0.025	0.9569 ± 0.0069	1.01 ± 0.018	1.01 ± 0.039	1.03 ± 0.014
TOR1AIP2 (UniProt Q8NFQ8)	0.929 ± 0.051	0.967 ± 0.026	0.925 ± 0.035	0.933 ± 0.077	0.9 ± 0.012	0.869 ± 0.041
LRRC57 (UniProt Q8N9N7)	0.976 ± 0.015	1.01 ± 0.034	0.991 ± 0.051	0.971 ± 0.029	0.993 ± 0.031	0.986 ± 0.052
EXOC8 (UniProt Q8IYI6)	1.01 ± 0.018	0.995 ± 0.021	0.98505 ± 0.00046	0.996 ± 0.027	0.981 ± 0.018	0.982 ± 0.014
FAM76A (UniProt Q8TAV0)	0.986 ± 0.061	0.9908 ± 0.0045	1.01 ± 0.077	1.03 ± 0.069	1.02 ± 0.064	1.07 ± 0.078
CCDC82 (UniProt Q8N4S0)	0.708 ± 0.074	0.745 ± 0.039	0.719 ± 0.058	0.801 ± 0.069	0.77 ± 0.059	0.815 ± 0.05
PPP1R35 (UniProt Q8TAP8)	0.861 ± 0.12	0.902 ± 0.031	0.958 ± 0.022	0.941 ± 0.06	0.956 ± 0.17	0.856 ± 0.026
PM20D2 (UniProt Q8IYS1)	1.01 ± 0.05	0.993 ± 0.041	0.969 ± 0.024	0.941 ± 0.076	0.983 ± 0.023	0.971 ± 0.046
CISD2 (UniProt Q8N5K1)	1.05 ± 0.023	0.991 ± 0.03	0.981 ± 0.015	0.986 ± 0.055	0.997 ± 0.038	0.969 ± 0.045
ARL6IP6 (UniProt Q8N6S5)	1.02 ± 0.036	1 ± 0.019	1.03 ± 0.017	0.975 ± 0.031	1.02 ± 0.031	1.02 ± 0.032
UniProt Q8IZP0-3|Q8IZP0-5|Q8IZP0-9|A0A0A0MRT6|B6VEX4 and related entries	0.933 ± 0.092	0.913 ± 0.069	0.898 ± 0.094	0.911 ± 0.098	0.888 ± 0.057	0.835 ± 0.069
NUBPL (UniProt Q8TB37)	1.08 ± 0.017	1.06 ± 0.012	1.11 ± 0.051	1.09 ± 0.062	1.09 ± 0.11	0.9908 ± 0.0055
UniProt Q8N0W3 and related entries	0.961 ± 0.066	0.95 ± 0.047	1 ± 0.044	0.886 ± 0.082	0.968 ± 0.032	1 ± 0.014
NUP93 (UniProt Q8N1F7)	1 ± 0.059	0.992 ± 0.051	0.994 ± 0.03	0.991 ± 0.064	1.02 ± 0.034	1.05 ± 0.033
C12orf29 (UniProt Q8N999)	1.03 ± 0.07	1.01 ± 0.07	1.02 ± 0.048	1 ± 0.014	1.03 ± 0.11	1.04 ± 0.072
SUPV3L1 (UniProt Q8IYB8)	1.05 ± 0.028	1.02 ± 0.029	1.01 ± 0.02	0.969 ± 0.059	1.03 ± 0.026	0.986 ± 0.033
C1orf174 (UniProt Q8IYL3)	1.07 ± 0.097	1.21 ± 0.077	1.27 ± 0.17	1.32 ± 0.19	1.22 ± 0.053	1.23 ± 0.063

Target	NP40-soluble protein abundance (concentration: 1mM)	NP40-soluble protein abundance (concentration: 2mM)	NP40-soluble protein abundance (concentration: 4mM)	NP40-soluble protein abundance (concentration: 6mM)	NP40-soluble protein abundance (concentration: 8mM)	NP40-soluble protein abundance (concentration: 10mM)
UniProt Q8N983-4|B1AL05 and related entries	1.06 ± 0.25	0.93 ± 0.26	0.877 ± 0.18	0.896 ± 0.36	0.945 ± 0.31	0.748 ± 0.21
UniProt Q8IWA5-2	0.94 ± 0.035	0.977 ± 0.013	0.926 ± 0.048	0.946 ± 0.062	0.899 ± 0.038	0.914 ± 0.022
UniProt Q8NG31 and related entries	1.03 ± 0.021	1.015 ± 0.0095	1.02 ± 0.017	1.02 ± 0.061	1.01 ± 0.013	1.01 ± 0.033
TTL (UniProt Q8NG68)	1.07 ± 0.09	1 ± 0.071	1.13 ± 0.019	0.991 ± 0.092	1.07 ± 0.017	0.998 ± 0.054
UniProt Q8N1K5 and related entries	1.05 ± 0.13	0.999 ± 0.12	0.986 ± 0.11	0.942 ± 0.13	1.02 ± 0.073	0.986 ± 0.082
LMTK2 (UniProt Q8IWU2)	1 ± 0.3	1.05 ± 0.23	1.01 ± 0.13	0.905 ± 0.23	0.987 ± 0.02	1.08 ± 0.079
RDH13 (UniProt Q8NBN7)	1 ± 0.033	1.006 ± 0.0082	1.02 ± 0.028	1.04 ± 0.029	1.02 ± 0.055	1.05 ± 0.021
LIX1L (UniProt Q8IVB5)	0.936 ± 0.025	0.968 ± 0.027	0.97 ± 0.019	0.972 ± 0.034	0.935 ± 0.059	0.93 ± 0.061
UniProt Q8IXQ5 and related entries	1.02 ± 0.057	1.04 ± 0.067	1.07 ± 0.07	1.05 ± 0.094	1.13 ± 0.12	1.118 ± 0.011
TMEM102 (UniProt Q8N9M5)	0.982 ± 0.14	1.06 ± 0.2	0.99 ± 0.079	1.07 ± 0.082	0.958 ± 0.012	0.959 ± 0.013
RNF169 (UniProt Q8NCN4)	1.17 ± 0.12	1.24 ± 0.15	1.27 ± 0.16	1.41 ± 0.18	1.37 ± 0.22	1.44 ± 0.19
MLKL (UniProt Q8NB16)	1.01 ± 0.09	1 ± 0.04	0.986 ± 0.056	0.962 ± 0.089	0.955 ± 0.055	0.995 ± 0.04
ZNF687 (UniProt Q8N1G0)	1.06 ± 0.067	1.03 ± 0.071	1.04 ± 0.071	1.13 ± 0.15	1.09 ± 0.12	1.11 ± 0.068
UniProt Q8NFC6	0.948 ± 0.04	0.954 ± 0.028	0.949 ± 0.024	0.999 ± 0.037	0.933 ± 0.027	0.952 ± 0.014
UniProt Q8IWF6	0.977 ± 0.059	0.973 ± 0.054	0.96 ± 0.054	0.935 ± 0.08	0.946 ± 0.09	0.974 ± 0.034
AVL9 (UniProt Q8NBF6)	1 ± 0.053	1 ± 0.025	0.979 ± 0.013	0.943 ± 0.06	0.9791 ± 0.0038	1 ± 0.035
SPATA5 (UniProt Q8NB90)	1.42 ± 0.051	1.47 ± 0.06	1.51 ± 0.045	1.49 ± 0.075	1.56 ± 0.09	1.56 ± 0.13
SCCPDH (UniProt Q8NBX0)	1.04 ± 0.064	1.01 ± 0.06	1 ± 0.054	0.98 ± 0.1	1.02 ± 0.042	0.999 ± 0.066
DIS3L2 (UniProt Q8IYB7)	1.02 ± 0.021	1 ± 0.02	1 ± 0.04	0.976 ± 0.033	0.991 ± 0.02	0.98 ± 0.02
UniProt Q8N8J7	0.952 ± 0.015	0.961 ± 0.14	0.965 ± 0.03	0.896 ± 0.056	0.914 ± 0.11	0.935 ± 0.12

Part of the list above, reduced to NP40-soluble protein abundance (concentration: 2mM), NP40-soluble protein abundance (concentration: 6mM) and NP40-soluble protein abundance (concentration: 1mM):
Target,NP40-soluble protein abundance (concentration: 2mM),NP40-soluble protein abundance (concentration: 6mM),NP40-soluble protein abundance (concentration: 1mM)
UniProt Q8IWA5-2,0.977 ± 0.013,0.946 ± 0.062,0.94 ± 0.035
LMTK2 (UniProt Q8IWU2),1.05 ± 0.23,0.905 ± 0.23,1 ± 0.3
RNF169 (UniProt Q8NCN4),1.24 ± 0.15,1.41 ± 0.18,1.17 ± 0.12
UniProt Q8NFC6,0.954 ± 0.028,0.999 ± 0.037,0.948 ± 0.04
UniProt Q8N8J7,0.961 ± 0.14,0.896 ± 0.056,0.952 ± 0.015

Further records:

Target	NP40-soluble protein abundance (concentration: 1mM)	NP40-soluble protein abundance (concentration: 2mM)	NP40-soluble protein abundance (concentration: 4mM)	NP40-soluble protein abundance (concentration: 6mM)	NP40-soluble protein abundance (concentration: 8mM)	NP40-soluble protein abundance (concentration: 10mM)
UniProt Q8N9N5 and related entries	1.01 ± 0.084	1.01 ± 0.024	1 ± 0.035	0.989 ± 0.054	0.949 ± 0.03	1 ± 0.011
UniProt Q8IWY9 and related entries	0.974 ± 0.057	0.991 ± 0.044	0.998 ± 0.036	0.93 ± 0.021	0.961 ± 0.037	0.965 ± 0.044
FTSJ3 (UniProt Q8IY81)	1.04 ± 0.086	1.06 ± 0.064	1.1 ± 0.084	1.15 ± 0.091	1.15 ± 0.075	1.17 ± 0.14
UniProt Q8IY95 and related entries	0.988 ± 0.096	0.995 ± 0.042	0.957 ± 0.071	0.918 ± 0.078	0.979 ± 0.068	0.951 ± 0.05
REXO1 (UniProt Q8N1G1)	1.08 ± 0.06	1.19 ± 0.05	1.18 ± 0.052	1.19 ± 0.055	1.17 ± 0.034	1.26 ± 0.14
ALDH16A1 (UniProt Q8IZ83)	1.03 ± 0.069	0.993 ± 0.021	0.973 ± 0.038	0.928 ± 0.065	0.998 ± 0.09	1 ± 0.081
UniProt Q8NBL1	0.979 ± 0.04	1 ± 0.061	0.968 ± 0.045	0.981 ± 0.041	0.954 ± 0.073	0.986 ± 0.07
CLYBL (UniProt Q8N0X4)	1.03 ± 0.039	1 ± 0.028	1.05 ± 0.036	1.05 ± 0.032	0.991 ± 0.06	1.012 ± 0.0089
ZBTB8OS (UniProt Q8IWT0)	1.13 ± 0.23	1.03 ± 0.094	1.09 ± 0.24	1.06 ± 0.17	1.08 ± 0.24	0.972 ± 0.041
COMMD1 (UniProt Q8N668)	0.963 ± 0.066	0.951 ± 0.057	0.901 ± 0.067	0.938 ± 0.081	0.921 ± 0.05	0.853 ± 0.11
UniProt Q8NCD3 and related entries	0.97 ± 0.067	0.925 ± 0.1	1.03 ± 0.13	1.05 ± 0.18	1.03 ± 0.064	1.04 ± 0.1
UniProt Q8NFD5 and related entries	1 ± 0.023	1.01 ± 0.038	1.03 ± 0.061	1.07 ± 0.12	1.04 ± 0.08	1.05 ± 0.059
SRBD1 (UniProt Q8N5C6)	1.17 ± 0.19	1.2 ± 0.017	1.29 ± 0.044	1.35 ± 0.073	1.4 ± 0.09	1.45 ± 0.057
UniProt Q8NFH5 and related entries	1.13 ± 0.19	1.081 ± 0.0023	1.1 ± 0.054	1.11 ± 0.043	1.03 ± 0.025	1.14 ± 0.062
ZC3H7A (UniProt Q8IWR0)	1.09 ± 0.065	1.13 ± 0.036	1.21 ± 0.038	1.18 ± 0.075	1.21 ± 0.071	1.21 ± 0.052
UniProt Q8TAA3-5|Q8TAA3	0.921 ± 0.07	0.948 ± 0.041	0.968 ± 0.039	0.931 ± 0.0098	0.878 ± 0.025	0.933 ± 0.062
UniProt Q8N108 and related entries	0.937 ± 0.063	0.988 ± 0.037	0.948 ± 0.021	0.999 ± 0.035	0.95 ± 0.022	0.965 ± 0.043
UniProt Q8NBN3 and related entries	0.933 ± 0.013	0.911 ± 0.027	0.899 ± 0.039	0.9565 ± 0.0059	0.901 ± 0.025	0.901 ± 0.014
THNSL1 (UniProt Q8IYQ7)	1.01 ± 0.064	1.01 ± 0.058	0.992 ± 0.067	0.981 ± 0.1	0.988 ± 0.07	0.994 ± 0.028
C9orf40 (UniProt Q8IXQ3)	0.99 ± 0.11	0.951 ± 0.11	0.836 ± 0.055	0.848 ± 0.14	0.813 ± 0.032	0.817 ± 0.081
